This is one part of the list. The main result of the screen is listed elsewhere. These columns were measured beside it and carry no call. The list favours compounds with an active or inconclusive main result. The note in brackets gives the kind of curve behind each potency; many fits are weak.

A short description of this assay: IkB Signaling. Particulars: ABC-DLBCL IkBa-CBG/CBR dual luciferase ratio (green luciferase fused to IkBa over red control in OCI-Ly3 lymphoma cells), 4 h. The procedure, abridged:
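Luminescence ratio of IκBα-fused green versus native red beetle luciferase in OCI-Ly3 cells, 4 h post-doxycycline with compound; red signal alone, scaled from basal (0%) to zero light (-100%), flagged nonspecific or cytotoxic effects.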

Where [1] appears, read: measured here: control luc red channel unless noted.
[2] abbreviates: measured here: IkB-luc green channel.
Where [3] appears, read: measured here: control luc red channel.

Turning to `CCCCOC(=O)c1ccc(Nc2nc3ccccc3c3nnc(C)n23)cc1`, the AC50 – broadly, the concentration giving half of the maximal activity seen – under setting [1] was 2.51 µM [falling, partial curve].
Consider `CCOc1ccc(/C=C(\C#N)C(=O)Nc2sc3c(c2C(=O)OC)C(C(=O)OC)CC3)cc1OC` (centres undefined), for which the AC50 was 31.6 µM [rising, partial curve] under setting [2] and 31.6 µM [rising, partial curve] under setting [3].
Consider `Cc1ccsc1-c1nc(CSCC(=O)N2CCN(c3ccccc3)CC2)c(C)o1`, for which, under setting [1], the AC50 was 12.6 µM [falling, partial curve].
As for `COc1ccc(-c2ccc(-c3nnc(-c4ccncc4)o3)cc2)cc1`, the AC50 under setting [1] was 20 µM [falling, single point].
In the case of `O=C(Cn1c(=O)n(Cc2ccc(C(=O)NCc3ccccc3Cl)cc2)c(=O)c2ccccc21)Nc1ccc(F)c(Cl)c1`, the AC50 under setting [1] was 1 µM [falling, full curve].
Take `CCc1cccc(C)c1NC(=O)CN1C(=O)C2(SCC(=O)N2c2cc(C)cc(C)c2)c2ccccc21` (centres undefined): the AC50 under setting [1] is 15.8 µM [falling, partial curve].
Take `Cc1ccc(-c2nc(CS(=O)(=O)CC(=O)NCc3ccccc3Cl)c(C)o2)cc1`: under setting [1], the AC50 was 31.6 µM [falling, partial curve].
Regarding `Cc1ccccc1CNC(=O)c1sc2ncnc(N(C)C3CCCCC3)c2c1C`, the AC50 under setting [1] was 39.8 µM [falling, single point].
Same read-out and setting: with `COc1ccccc1NC(=O)N(Cc1ccco1)Cc1cc2ccc(C)c(C)c2[nH]c1=O` the figure was 15.8 µM [falling, partial curve]; with `O=S(=O)(c1ccc2[nH]c3c(c2c1)CCCCC3)N1CCN(c2cccc(Cl)c2)CC1`, 3.98 µM [falling, full curve].
For `Cc1oc(-c2cccc(Cl)c2)nc1CN1CCCC(C(=O)NCc2ccc(Cl)cc2)C1` (centres undefined), under setting [1], the half-maximal activity concentration (AC50) is 20 µM [falling, partial curve].
Consider `Cc1cc(C)n(-c2ccc(C(=O)Nc3sccc3C(N)=O)cc2)n1`, for which the AC50 under setting [1] was 25.1 µM [falling, partial curve].
The same measure, in the same setting: with `Cc1cc(C)cc(OCC(=O)N(Cc2ccc(Cl)cc2)CC2CCCO2)c1` (centres undefined) the figure was 31.6 µM [falling, partial curve]; with `c1ccc(CCNc2nc3ccccc3n3nnnc23)cc1`, 3.98 µM [falling, full curve].
On the same count and under the same terms, with `O=C(NC1CCCC1)c1ccc2c(=O)n(Cc3ccccc3)c(SCc3ccccc3)nc2c1` the figure was 0.316 µM [falling, full curve]; with `Cc1ccc(Nc2nc(Nc3ccc(C)c(C)c3)nc(N3CCOCC3)n2)cc1C`, 12.6 µM [falling, partial curve]; with `CCc1cccc(C)c1NC(=O)C1CCN(S(=O)(=O)Cc2ccccc2)CC1`, 0.0158 µM [rising, full curve, poor fit].
On the same count and under the same terms, the figure for `COCCn1nnnc1C(c1cccs1)N1CCN(c2cc(C)ccc2C)CC1` (centres undefined) is 12.6 µM [falling, partial curve]; for `COc1ccc(N2CCN(CCCNC(=O)c3cc(Nc4ccccc4OC)nc4ccccc34)CC2)cc1` it is 20 µM [falling, partial curve]; for `N#CC1=C(N)C(C#N)(C#N)C(c2cccnc2)C2COCC=C12` (centres undefined) it is 39.8 µM [rising, single point] [measured here: IkB-luc green channel].
For `COc1ccc(S(=O)(=O)N2CCCC(C(=O)Nc3cccnc3)C2)cc1Cl` (centres undefined), the AC50 under setting [1] was 25.1 µM [falling, single point].
For the molecule `CCc1ccc(NC(=O)C2=CC(c3ccc4c(c3)OCO4)=NS(=O)(=O)N2C)cc1`, under setting [1], the AC50 was 31.6 µM [falling, single point].
As for `COc1ccccc1CNC(=O)CSc1ncc2c(n1)-c1cc(Cl)ccc1N(Cc1ccccc1)S2(=O)=O`, the AC50 under setting [1] was 1.26 µM [falling, full curve].
For the molecule `Cc1c(C(=O)N(Cc2ccc(Cl)cc2)CC2CCCO2)oc2ccc(F)cc12` (centres undefined), the AC50 under setting [1] is 39.8 µM [falling, single point].
Consider `CCOc1ccc(-c2nc(SCC(=O)NCCCOC)c(-c3ccccc3)[nH]2)cc1`, for which the AC50 under setting [1] was 25.1 µM [falling, single point].
With `CSc1ccc(CC2C(=O)Nc3ccccc32)cc1` (centres undefined), the AC50 under setting [1] is 25.1 µM [falling, single point].
In the case of `O=C(CS(=O)(=O)c1cccc2nsnc12)Nc1cc(F)ccc1F`, the AC50 under setting [1] is 0.0158 µM [falling, full curve, poor fit].
Consider `O=C(Cc1ccccc1F)N1CCC(c2nc3c(nnn3Cc3ccc(F)cc3)c(=O)[nH]2)CC1`, for which the AC50 under setting [1] is 39.8 µM [falling, single point].
`O=C(NCc1cccnc1)NC1(C(F)(F)F)Oc2ccc(Cl)cc2O1` (centres undefined): the AC50 by setting is: under setting [2], 39.8 µM [rising, single point]; under setting [3], 3.16 µM [falling, full curve].
Consider `CCCOc1ccc(NC(=O)CC2C(=O)N(c3ccc(C)cc3)C(=O)N2Cc2cccc(OC)c2)cc1` (centres undefined), for which the AC50 under setting [1] is 2.51 µM [falling, full curve].
For `CCOC(=O)C1CCN(c2c(C(=O)c3ccc(C)cc3)cnc3ccc(F)cc23)CC1`, the AC50 under setting [1] is 39.8 µM [falling, single point].
On to `O=C(C1CC1)N1CCc2cc(Br)cc(S(=O)(=O)N3CCCCCC3)c21`, for which the AC50 under setting [1] was 12.6 µM [falling, partial curve].
Consider `CC1CCc2nc(NC(=O)C3CCCO3)sc2C1` (centres undefined), for which the AC50 under setting [1] was 12.6 µM [falling, partial curve].
On the same count and under the same terms, with `O=C(NCCCN1CCOCC1)c1cc(-c2ccc(Cl)cc2)on1` the figure was 15.8 µM [falling, partial curve]; with `CC1CCC2(CC1)N=C(c1ccccc1)C(=O)N2CC(=O)Nc1ccc(F)c(Cl)c1` (centres undefined), 12.6 µM [falling, partial curve]; with `Cc1nc2ncnn2c(C)c1CCC(=O)N1CCN(c2cccc(Cl)c2)CC1`, 25.1 µM [falling, partial curve, poor fit].
Regarding `CC(=O)CC1OC(=O)C(Br)=C1NCc1ccccc1` (centres undefined), the AC50 is 2.51 µM [rising, partial curve] under setting [2] and 7.94 µM [falling, partial curve] under setting [3].
As for `CCc1ccccc1NS(=O)(=O)c1ccc(-c2coc(C)n2)cc1`, the AC50 under setting [1] was 1 µM [rising, full curve].
`Cc1oc2ncnc(N3CCCCC3)c2c1C(=O)Nc1cccc(Cl)c1C`: the concentration at half-maximal activity (AC50) under setting [1] was 39.8 µM [falling, single point].
On the same count and under the same terms, the figure for `Cc1nc2cc(-c3ccccc3)nn2c(C)c1CCC(=O)NCCc1ccccc1` is 5.01 µM [falling, partial curve]; for `COc1ccc(CC(=O)Nc2ccc(-c3nc4ccccc4s3)cc2Cl)cc1OC` it is 2 µM [rising, partial curve].
For `COc1ccc(Nc2cc(C(=O)NCCCN(C)c3ccccc3)c3ccccc3n2)c(OC)c1`, under setting [1], the AC50 is 10 µM [falling, partial curve].
For the molecule `CCOC(=O)c1ccc(Nc2nc(N)c3cc(OC)c(OC)cc3n2)cc1`, under setting [1], the AC50 is 15.8 µM [falling, partial curve].
Consider `Cc1c(Cl)cccc1-n1c(SCC(=O)NCc2ccccc2)nc2n[nH]c(C)c2c1=N`, for which the AC50 under setting [1] was 39.8 µM [falling, single point].
Consider `CCCOc1ccc(CNC(=O)C(C)n2nc(C)n3c(cc4occc43)c2=O)cc1` (centres undefined), for which the AC50 under setting [1] was 39.8 µM [falling, single point].
As for `O=C(CSc1nnnn1C1CC2CCC1C2)Nc1ccnc2ccccc12` (centres undefined), under setting [1], the AC50 is 7.94 µM [falling, partial curve].
Take `CC1CCN(C(=O)c2ccccc2NC(=O)c2nsc3ccccc23)CC1`: under setting [1], the AC50 was 39.8 µM [falling, partial curve].
On the same count and under the same terms, with `O=C(CC(Nc1ccc(F)cc1)C(=O)O)c1ccccc1` (centres undefined) the figure was 12.6 µM [falling, partial curve].
Turning to `COc1ccccc1N1CCN(C(=O)c2nc(-c3ccc(C)cc3)n3c2CCCCC3)CC1`, under setting [1], the AC50 is 0.0251 µM [falling, full curve].
Same read-out and setting: the figure for `CCC(C)c1ccc2oc(-c3ccc(NC(=O)Cn4cnc5c(=O)n(C)c(=O)n(C)c54)cc3)nc2c1` (centres undefined) is 0.631 µM [falling, full curve].
With `O=C(NC1CC1)c1ccc2c(c1)ncn2C1CCCC1`, the AC50 under setting [1] was 10 µM [falling, partial curve].
For `Cc1ccc(NC(=O)c2c(C)oc3ccc(O)c(CN4CCCCC4)c23)cc1`, under setting [1], the AC50 is 39.8 µM [falling, single point].
As for `Cn1c(C(=O)N2CCCC(C(=O)NCCCSC3CCCCC3)C2)cc2sccc21` (centres undefined), the AC50 under setting [1] is 15.8 µM [falling, partial curve].
Take `O=C(CSc1nnc(-c2cccs2)o1)N1CCCCC1`: the AC50 under setting [1] is 12.6 µM [falling, partial curve].
The same measure, in the same setting: with `Cc1cc(C)c(/C=C/c2onc(C)c2S(=O)(=O)N2CCC(C(=O)NCC(C)c3ccccc3)CC2)c(C)c1` (centres undefined) the figure was 15.8 µM [falling, partial curve]; with `Cc1ccccc1NS(=O)(=O)c1cccc(-c2nnc(-c3ccccc3)o2)c1`, 39.8 µM [rising, single point] [measured here: IkB-luc green channel].
For `CCN(CC)CCNC(=O)c1ccc2c(c1)NC(=O)C(CS(=O)(=O)Cc1ccc(F)cc1Cl)N2` (centres undefined), the AC50 under setting [1] was 1.26 µM [rising, partial curve].
For `Cc1nn(C)c2c1c(-c1ccccc1)cc(=O)n2C(C)C(=O)NCCc1ccc(Cl)cc1` (centres undefined), under setting [1], the AC50 is 25.1 µM [falling, single point].
Consider `COc1ccc(S(=O)(=O)NCC(c2ccco2)N2CCN(c3ccccc3F)CC2)cc1OC` (centres undefined), for which the AC50 under setting [1] was 25.1 µM [falling, single point].
For `CS(=O)(=O)N1CCC(C(=O)Nc2c(F)cccc2F)CC1`, the concentration at half-maximal activity (AC50) under setting [1] was 39.8 µM [rising, single point] [measured here: IkB-luc green channel].
Take `Cc1cc(C)cc(NC(=O)CSc2nnc(COc3ccccc3Cl)o2)c1`: under setting [1], the AC50 is 20 µM [falling, single point].

These data come from PubChem BioAssay AID445 (National Center for Advancing Translational Sciences (NCATS), 2006).
